# From PubChem BioAssay AID493014 (National Center for Advancing Translational Sciences (NCATS), 2011)
# Some of the results follow. The main result of the screen is listed elsewhere. These columns were measured beside it and carry no call. Compounds called inactive in the main read-out are mostly missing here. Words in brackets tell the shape of the fitted curve; partial curves, single points and poor fits give uncertain potencies.
# Test: qHTS Assay to Find Inhibitors of Chronic Active B-Cell Receptor Signaling
# Conditions: ABC-DLBCL IkBa-CBG/CBR reporter, luminescence ratio (green luciferase fused to IkBa over red control in TMD8 lymphoma cells), 4 h
# Summary of the method: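 Compounds up to 46 uM were incubated four hours with TMD8 cells whose green CBG68 luciferase is fused to IkappaBalpha; red CBR luminescence normalised the signal, and concentration-effect curves were fitted to fusion, red and ratio data.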
# [1] = measured here: CBR red luminescence, cell number
# [2] = measured here: IkBa-CBG green luminescence
Structure (SMILES),AC50 [1],AC50 [2]
Cc1ccc(CNC(=O)COc2ccc(S(=O)(=O)N3CCOCC3)cc2)cc1,"6.51 µM [rising, single point]",
COc1cccc(NC(=O)c2cnc(SCC(=O)NCc3ccc4c(c3)OCO4)n(C)c2=O)c1,"9.2 µM [falling, partial curve]",
COc1ccc(-c2noc(C3CCCN(C(=O)Nc4ccccc4)C3)n2)cc1 (stereo not drawn),"0.891 µM [falling, full curve]",
CCn1cc(CN2CCCC(CNC(=O)COc3ccccc3OC)C2)c(C)n1 (stereo not drawn),"0.562 µM [falling, full curve, poor fit]",
COc1ccccc1CNC(=O)COC(=O)c1cc(-c2ccco2)nc2ccccc12,"25.9 µM [falling, single point]",
CCC(=O)N1N=C(c2c(O)n(C)c(=O)n(C)c2=O)CC1c1ccccc1 (stereo not drawn),"35.5 µM [falling, single point]",
O=C(NCC(=O)N1CCCCC1)c1sc2ccccc2c1Cl,"11.6 µM [falling, partial curve]",
c1ccc(COc2ccccc2CNC23CC4CC(CC(C4)C2)C3)cc1,"11.2 µM [falling, partial curve, poor fit]","28.2 µM [rising, partial curve, poor fit]"
Cc1ccccc1CNc1nc(N)n(-c2ccccc2)n1,"17.8 µM [falling, partial curve, poor fit]",
c1ccc2[nH]c(CN3CCCCCC3)nc2c1,"20.6 µM [falling, single point]",
CCCN(CCC)Cc1c(C(=O)N/N=C/C(C)=C\c2ccco2)nnn1-c1nonc1N,,"20 µM [rising, partial curve, poor fit]"
O=C(Cn1nc2n(c1=O)-c1ccccc1SC2)N/N=C/c1cccnc1,"10 µM [rising, partial curve, poor fit]",
CCOCCCN(C)C1CCN(C(=O)c2oc3ccccc3c2NC(=O)c2ccc([N+](=O)[O-])cc2)CC1,"14.1 µM [rising, single point]",
S=c1[nH]nc(Nc2cccc(Cl)c2)s1,"1.12 µM [rising, full curve, poor fit]",
O=C1CC(c2ccccc2)CC(O)=C1C=NCCN1CCN(Cc2ccccc2)CC1 (stereo not drawn),"3.98 µM [falling, single point]",
C/C(=N\NC(=O)COc1ccc(C(C)(C)C)cc1)c1ccc(N2CCOCC2)cc1,,"29.1 µM [falling, partial curve, poor fit]"
Clc1ccccc1CSc1ncccn1,"10.3 µM [rising, single point]",
O=C(Nc1ccc(Cl)cc1Cl)c1ccc2ncsc2c1,"0.398 µM [rising, full curve, poor fit]",
CCCCCCc1nnc(NC(=O)OCC)s1,"10 µM [rising, partial curve]",
Cc1nnc2ccc(-c3ccc(NC(=O)c4ccco4)cc3)nn12,"35.5 µM [falling, single point]",
COc1ccc2c(c1)[nH]c1c(=O)n(Cc3ccccn3)cnc12,"1.3 µM [rising, partial curve, poor fit]",
C/C(CC(=O)Nc1cccc(F)c1)=N\NC(=O)c1ccncc1,"35.5 µM [falling, single point]",

# 2 entries picked at random from the list so far, as already listed:
Structure (SMILES),AC50 [1],AC50 [2]
Clc1ccccc1CSc1ncccn1,"10.3 µM [rising, single point]",
CCC(=O)N1N=C(c2c(O)n(C)c(=O)n(C)c2=O)CC1c1ccccc1 (stereo not drawn),"35.5 µM [falling, single point]",

# Additional compounds follow.

Structure (SMILES),AC50 [1],AC50 [2]
O=C(Cc1cccs1)Nc1ccccc1C(=O)O,"29.1 µM [falling, single point]",
Cc1cc(C(=O)O)ccc1-c1ccc(/C=N/n2cnnc2)o1,"11.2 µM [falling, partial curve]",
COc1ccc(/C(O)=C2/C(=O)C(=O)N(c3ccccn3)C2c2ccc(OC)cc2)cc1 (stereo not drawn),"35.5 µM [rising, single point]",
O=C(O)CSc1nnc2c(n1)[nH]c1ccccc12,"35.5 µM [falling, single point]",
Cc1cc(C)n(-c2nc(-c3ccc(Cl)cc3)cs2)n1,"3.66 µM [rising, partial curve, poor fit]",
O=C(Nc1ccccc1)N1CCCC1,"1.3 µM [rising, partial curve]",
Cn1c(=O)c2c(ncn2CCO)n(C)c1=O,"4.47 µM [falling, partial curve, poor fit]",
Cc1nc([N+](=O)[O-])c(Br)n1CC(=O)c1ccc(F)cc1,"0.1 µM [falling, full curve, poor fit]",
CC(C)C(=O)Nc1nnc(SCc2cccc(F)c2)s1,"7.94 µM [rising, partial curve]",
CC1=NN(C(=O)COc2ccccc2C)C(O)(c2ccc(Cl)cc2)C1 (stereo not drawn),"20.6 µM [falling, partial curve]",
C=CCn1c(SCC(=O)c2ccc(O)c(O)c2)nnc1-c1ccc(C)cc1,"20.6 µM [falling, single point]",
Cc1cc(C)cc(OC(=O)c2cccnc2)c1,"15.8 µM [rising, partial curve, poor fit]",
Cc1c(C)c2ccc(OCC(=O)NCCCN3CCCC3=O)cc2oc1=O,"10 µM [rising, partial curve, poor fit]",
CC(=O)c1ccc(NC(=O)C(C)OC(=O)c2ccc3c(c2)nc(C)n3-c2ccccc2)cc1 (stereo not drawn),"29.1 µM [falling, single point]",
O=C(Nc1ccccc1C(=O)Nc1ccccn1)c1cccc([N+](=O)[O-])c1,"11.2 µM [falling, single point]",
CC(=O)NC1C(=O)N=C(SCC(=O)NCc2ccccc2)NC1=O (stereo not drawn),"8.2 µM [rising, partial curve, poor fit]",
CCN(C(=O)Cn1c(=O)n(Cc2ccccc2)c(=O)c2ccccc21)c1cccc(C)c1,"29.1 µM [falling, single point]",
Cc1cc(C)c2nc(NC(=O)c3ccco3)sc2c1,"14.1 µM [falling, single point]",
CC(=O)Oc1cccc(Nc2ncnc3ccccc23)c1,"17.8 µM [falling, single point]",
CC(C)(C)NCC1(CO)SC(N)=NC1=O (stereo not drawn),"20 µM [falling, partial curve, poor fit]","31.6 µM [rising, partial curve, poor fit]"
COc1ccc(S(=O)(=O)N2CCOCC2)c2ccccc12,"25.1 µM [rising, single point]",
O=C1/C(=C/c2cccs2)SC(=S)N1N1CCOCC1,"11.2 µM [rising, partial curve]",

Structure (SMILES),AC50 [1],AC50 [2]
O=C(COC(=O)c1ccccc1)NCc1ccco1,"2.24 µM [rising, partial curve, poor fit]",
CC(C)COC(=S)Nc1ccccc1,"2.91 µM [rising, partial curve, poor fit]",
Cc1[nH]n(C(N)=S)c(=O)c1N=Nc1cccc([N+](=O)[O-])c1C,"6.31 µM [rising, partial curve, poor fit]","0.631 µM [falling, partial curve, poor fit]"
CNC[C@@H]1Oc2ccc(NC(=O)Nc3cccc4ccccc34)cc2C(=O)N([C@@H](C)CO)C[C@@H]1C,"6.51 µM [falling, full curve]",
CCC(CC)c1nnc(NC(=O)C2CC(=O)N(C3CCCC3)C2)s1 (stereo not drawn),"8.91 µM [falling, partial curve, poor fit]",
COc1ccc(C(=O)CNc2ccccc2CO)cc1,"22.4 µM [falling, single point]",
O=C(CN1c2cccc3cccc(c23)S1(=O)=O)Nc1cccc(S(=O)(=O)N2CCOCC2)c1,"10.3 µM [falling, partial curve]",
Cc1cc(C)cc(NC(=O)Cn2ncn3c(cc4ccccc43)c2=O)c1,"23.1 µM [falling, single point]",
COc1cc(OC)nc(NC(=S)NC(=O)c2ccccc2)n1,"20.6 µM [falling, partial curve]",
COc1ccccc1NS(=O)(=O)c1ccc(C)c(NC(=O)C2CCCO2)c1 (stereo not drawn),"1.46 µM [rising, partial curve, poor fit]",
Cc1nc(NC(=O)C2CCCCC2)sc1C,"14.6 µM [falling, partial curve]",
COc1ccc(/C=C/C(=O)N[C@H](C(=O)O)C(C)C)cc1,"12.6 µM [falling, partial curve, poor fit]",
CCN1CCCC1CNC(=O)c1cc2c(-c3ccc(Cl)cc3)nn(C)c2s1 (stereo not drawn),"29.1 µM [falling, partial curve, poor fit]",
Cc1ccc(S(=O)(=O)NCc2csc(C)n2)cc1,"6.31 µM [falling, partial curve, poor fit]",
Cc1ccc(CNC(=O)CSc2nc(C)cs2)cc1,"10 µM [rising, partial curve, poor fit]",
C=CCc1cc(Cl)ccc1OCCCNCCO,"12.6 µM [falling, partial curve, poor fit]",
O=C(Nc1cccnc1)c1cc2cc(Br)ccc2oc1=O,"3.98 µM [rising, full curve, poor fit]",
CSc1ccc(/C=N/NC(=O)c2ccc(O)cc2)cc1,"0.0517 µM [falling, full curve]",
CN(C)CCC(=O)N1c2ccccc2Sc2ccc(Cl)cc21,"15.8 µM [falling, partial curve, poor fit]",
O=C(CCC1CCCN(C(=O)c2ccoc2)C1)NCc1ccccc1F (stereo not drawn),"20 µM [rising, partial curve, poor fit]",
Cc1nc2ccccc2c2oc(C(=O)N3CCN(C(=O)c4ccco4)CC3)cc12,"32.6 µM [falling, single point]",

# Of the compounds above, 11 have an aryl methoxy group.
Structure (SMILES),AC50 [1],AC50 [2]
COc1cccc(NC(=O)c2cnc(SCC(=O)NCc3ccc4c(c3)OCO4)n(C)c2=O)c1,"9.2 µM [falling, partial curve]",
COc1ccc(-c2noc(C3CCCN(C(=O)Nc4ccccc4)C3)n2)cc1 (stereo not drawn),"0.891 µM [falling, full curve]",
CCn1cc(CN2CCCC(CNC(=O)COc3ccccc3OC)C2)c(C)n1 (stereo not drawn),"0.562 µM [falling, full curve, poor fit]",
COc1ccccc1CNC(=O)COC(=O)c1cc(-c2ccco2)nc2ccccc12,"25.9 µM [falling, single point]",
COc1ccc2c(c1)[nH]c1c(=O)n(Cc3ccccn3)cnc12,"1.3 µM [rising, partial curve, poor fit]",
COc1ccc(/C(O)=C2/C(=O)C(=O)N(c3ccccn3)C2c2ccc(OC)cc2)cc1 (stereo not drawn),"35.5 µM [rising, single point]",
COc1ccc(S(=O)(=O)N2CCOCC2)c2ccccc12,"25.1 µM [rising, single point]",
COc1ccc(C(=O)CNc2ccccc2CO)cc1,"22.4 µM [falling, single point]",
COc1cc(OC)nc(NC(=S)NC(=O)c2ccccc2)n1,"20.6 µM [falling, partial curve]",
COc1ccccc1NS(=O)(=O)c1ccc(C)c(NC(=O)C2CCCO2)c1 (stereo not drawn),"1.46 µM [rising, partial curve, poor fit]",
COc1ccc(/C=C/C(=O)N[C@H](C(=O)O)C(C)C)cc1,"12.6 µM [falling, partial curve, poor fit]",
